Reference: publication doi:10.1101/2020.03.19.998880
These are yes or no findings as the source states them, for the method shown. For part of these data: Binding can be weak; no strength is given. Sequences can lack the tags named with a protein. One block for each binder: values may come before it.

Legend:
Assay in all cases: two-hybrid
[1] = target: INCENP (WYRD), yeast two-hybrid fusion (Arabidopsis thaliana)
[2] = target: INCENP C-terminal region, yeast two-hybrid fusion (Arabidopsis thaliana)
[3] = target: INCENP^W1723G, yeast two-hybrid fusion (Arabidopsis thaliana)
[4] = target: INCENP^F1745A, yeast two-hybrid fusion (Arabidopsis thaliana)

binding [1]: no binding
B1: AUR1, yeast two-hybrid fusion (enzyme, UniProt Q9M077 1-294)
chain: MAIPTETQHQEKEASDASAAAAQKRWTLSDFDIGKPLGRGKFGHVYLAREKRSNHVVALKVLFKSQLQQSQVEHQLRREVEIQSHLRHPNILRLYGYFYDQKRVYLILEYAARGELYKDLQKCKYFSERRAATYVASLARALIYCHGKHVIHRDIKPENLLIGAQGELKIADFGWSVHTFNRRRTMCGTLDYLPPEMVESVEHDASVDIWSLGILCYEFLYGVPPFEAMEHSDTYRRIVQVDLKFPPKPIISASAKDLISQMLVKESSQRLPLHKLLEHPWIVQNADPSGIYRV

binding [1]: binds
binding [2]: binds
binding [3]: no binding
binding [4]: binds
B2: AUR3 (Aurora 3), yeast two-hybrid fusion (enzyme, UniProt O64629 1-288)
chain: MSKKSTESDAGNTEKQWSLADFEIGRPLGKGKFGRVYLAREAKSKYIVALKVIFKEQIEKYKIHHQLRREMEIQTSLRHPNILRLFGWFHDNERIFLILEYAHGGELYGVLKQNGHLTEQQAATYIASLSQALAYCHGKCVIHRDIKPENLLLDHEGRLKIADFGWSVQSSNKRKTMCGTLDYLAPEMVENRDHDYAVDNWTLGILCYEFLYGNPPFEAESQKDTFKRILKIDLSFPLTPNVSEEAKNLISQLLVKDPSKRLSIEKIMQHPWIVKNADPKGVCASIDI

binding [1]: no binding
B3: AUR2, yeast two-hybrid fusion (enzyme, UniProt Q683C9 1-282)
chain: MLYQAASEAAQKRWTTSDFDIGKPLGRGKFGHVYLAREKRSDHIVALKVLFKAQLQQSQVEHQLRREVEIQSHLRHPNILRLYGYFYDQKRVYLILEYAVRGELYKELQKCKYFSERRAATYVASLARALIYCHGKHVIHRDIKPENLLIGAQGELKIADFGWSVHTFNRRRTMCGTLDYLPPEMVESVEHDASVDIWSLGILCYEFLYGVPPFEAREHSETYKRIVQVDLKFPPKPIVSSSAKDLISQMLVKESTQRLALHKLLEHPWIVQNADPSGLYRG
